Literature values, collected in publication PMC9880397 (Heliyon, 2023).

Test system: HEPG-2 cells
Details: read-out: IC50 towards HEPG-2 cells; cited from earlier work

N.N.[Cl][Pt][Cl] [cisplatin]
IC50: 28.5 µM
